PubChem BioAssay AID1224826, NIAID – 2016
This is one part, drawn at random, of about 17,000 reagents. About 1,110 of them (6.6%) were called active. 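Active means lowered or raised reporter signal; replicate intensities are raw and not normalised per plate.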 Unmarked entries are inactive. Reagents against one gene are numbered here. Not all columns of the deposit are shown.

Aim: 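Genes that change LPS-induced Tnf promoter activity in mouse macrophages when knocked down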 (primary screen)
Cells: RAW264.7 G9 macrophages from mouse bearing reporters for p65 (GFP) and the Tnf promoter (mCherry)
Reagents: siRNA pool against mouse genes, 100 nM
Timing: 16 h of LPS stimulation, after 2 days of siRNA transfection
Treatment: bacterial lipopolysaccharide (Salmonella minnesota R595), 10 ng/ml
Measurement: 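Nuclear mCherry signal of the Tnf promoter reporter measured by imaging after background removal, scaled to each plate median and turned into robust z-scores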
Scale: Tnf reporter robust z-score: higher = stronger Tnf promoter reporter signal after LPS
Call rule: 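Called active when robust z-score is at most -1.3, matching the median of the Tlr4 knock-down control, or over 3; control wells and wells with under 50 cells never active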
Calls: active = Tnf reporter clearly lowered or raised; inactive = no clear change in Tnf reporter

Wbp1l: Tnf reporter robust z-score = -0.81; fewer than 50 cells in well = enough cells in well
Crbn: Tnf reporter robust z-score = 0.76; fewer than 50 cells in well = enough cells in well
Trim32: Tnf reporter robust z-score = 0.26; fewer than 50 cells in well = enough cells in well
Npc1: Tnf reporter robust z-score = 0.39; fewer than 50 cells in well = enough cells in well
Tnxb: Tnf reporter robust z-score = -0.04; fewer than 50 cells in well = enough cells in well
Tlr9: Tnf reporter robust z-score = -0.59; fewer than 50 cells in well = enough cells in well
Rap1b: Tnf reporter robust z-score = -0.21; fewer than 50 cells in well = enough cells in well
Tle2: Tnf reporter robust z-score = 1.25; fewer than 50 cells in well = enough cells in well
Setmar: Tnf reporter robust z-score = 0.17; fewer than 50 cells in well = enough cells in well
Fbxo41: Tnf reporter robust z-score = 1.88; fewer than 50 cells in well = enough cells in well
Uck1: Tnf reporter robust z-score = 0.07; fewer than 50 cells in well = enough cells in well
Strap: Tnf reporter robust z-score = 1.03; fewer than 50 cells in well = enough cells in well

Continued, starting with the last 3 of the part before.
Fbxo41: Tnf reporter robust z-score = 1.88; fewer than 50 cells in well = enough cells in well
Uck1: Tnf reporter robust z-score = 0.07; fewer than 50 cells in well = enough cells in well
Strap: Tnf reporter robust z-score = 1.03; fewer than 50 cells in well = enough cells in well
B4galt2: Tnf reporter robust z-score = -0.21; fewer than 50 cells in well = enough cells in well
Or5b116: Tnf reporter robust z-score = 1.53; fewer than 50 cells in well = enough cells in well
Sema3e #1: Tnf reporter robust z-score = -0.19; fewer than 50 cells in well = enough cells in well
Sema3e #2: fewer than 50 cells in well = fewer than 50 cells per well; well left out of calls
Tm6sf1: Tnf reporter robust z-score = -0.57; fewer than 50 cells in well = enough cells in well
Rhobtb2: Tnf reporter robust z-score = 0.45; fewer than 50 cells in well = enough cells in well
Klra12: Tnf reporter robust z-score = -0.99; fewer than 50 cells in well = enough cells in well
Trpc3: Tnf reporter robust z-score = 0.97; fewer than 50 cells in well = enough cells in well
Pde4b: Tnf reporter robust z-score = 0.97; fewer than 50 cells in well = enough cells in well
